In paper PMC11136664 one finds binding data, which are given here for one substance.

Chains of the proteins cited; added tags and fusions are not shown.
UniProt Q9LNJ5: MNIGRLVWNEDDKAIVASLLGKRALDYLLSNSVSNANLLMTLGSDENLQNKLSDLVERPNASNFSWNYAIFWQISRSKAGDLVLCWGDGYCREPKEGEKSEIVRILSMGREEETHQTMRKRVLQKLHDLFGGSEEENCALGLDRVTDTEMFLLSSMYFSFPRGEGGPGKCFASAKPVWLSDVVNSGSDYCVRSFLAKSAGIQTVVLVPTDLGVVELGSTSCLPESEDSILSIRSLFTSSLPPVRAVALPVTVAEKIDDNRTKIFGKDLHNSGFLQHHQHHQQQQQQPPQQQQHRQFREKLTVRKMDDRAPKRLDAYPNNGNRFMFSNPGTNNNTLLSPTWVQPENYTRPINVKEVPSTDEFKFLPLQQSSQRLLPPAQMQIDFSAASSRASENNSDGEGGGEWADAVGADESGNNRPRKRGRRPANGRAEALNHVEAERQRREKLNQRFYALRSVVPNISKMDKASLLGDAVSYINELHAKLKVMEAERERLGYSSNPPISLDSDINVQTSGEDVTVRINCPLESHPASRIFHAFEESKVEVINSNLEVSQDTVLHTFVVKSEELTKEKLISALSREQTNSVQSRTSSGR

Assay [1] concerns the target JASMONATE-ASSOCIATED MYC-LIKE 2 (JAM2), GAL4-DNA binding domain fusion (A. thaliana) (UniProt Q9LNJ5). The assay can be described thus: two-hybrid; growth assay in liquid culture for histidine autotrophy (-L,-W,-H), JAM2 fused to Gal4-BD, partners fused to Gal4-AD; growth rate µ over the first 24 h; at 20 °C.
For assay [2] the target is unchanged. The assay can be described thus: two-hybrid; growth assay in liquid culture for histidine autotrophy (-L,-W,-H), JAM2 fused to Gal4-BD, partners fused to Gal4-AD; growth rate µ over the first 24 h; at 25 °C and above (30 °C).

No constants are given. Whether binding was seen depends on the method and setting. Some binding calls cover weakened binding; strength is not graded here.

On to “JASMONATE-ASSOCIATED MYC-LIKE 2 (JAM2), GAL4-DNA binding domain fusion (from UniProt Q9LNJ5 1-590)”, for which the binding entry in assay [1] and in assay [2] was “binds” throughout.
